Source: PubChem BioAssay AID330 (DTP/NCI, 2004)
The list is a part of this screen's results and no random one: it gathers tests that were run many times, whatever their T/C, doses with no T/C, and many T/C values between a quarter and a half above the control. Other doses and runs of a compound stand elsewhere. T/C: endpoint of the treated group in % of that of the vehicle group. Some entries give survivors of the animals treated and no T/C: the source holds a T/C of zero for them, seemingly a mark for toxic or unscored doses. Some survivor counts are full or nearly so, which does not show that the dose was tolerated: survival well below the control is almost never listed, so the zero probably covers shortened survival too. Counts of survivors are from the toxicity check (mostly the fifth day) where no day follows; animals may have died later. Schedule codes are those of the source, read here as Q, the interval in days (D) or hours (H), X, the number of doses. Some structures stand for samples that the source files as different forms (salt, stereo form or complex); doses refer to the form tested. Some entries hold several experiments; the values are given in rising order. For survival time, this PubChem deposit counts one and a half times the control or more as active, and values a quarter to a half above the control carry no call in these data; other NCI protocols may use other cut-offs. Some T/C values carry the count of animals alive at the toxicity check (mostly the fifth day); without a count, all were alive then. Signs of the kind (2×) say how often a value occurs here.

Tested on: P388 leukemia ip, CD2F1 mice, survival T/C
Assay: NCI In Vivo Anticancer Drug Screen. Data for tumor model P388 Leukemia (intraperitoneal) in CD2F1 (CDF1) mice
Details: T/C endpoint: median survival time, higher T/C = longer survival
[1] = dose: 80.0 mg/kg/injection, schedule: Q01DX009 (ip), vehicle: distilled water + Tween-80

Compound: COc1cc(NCc2ccc3nc(N)nc(N)c3c2C)cc(OC)c1OC
- T/C (dose: 2.5 mg/kg/injection, schedule: Q01DX009 (ip), vehicle: sodium bicarbonate): 144 % of control
- T/C (dose: 2.59 mg/kg/injection, schedule: Q01DX009 (ip), vehicle: Klucel (hydroxypropylcellulose) (HPC)): 129 % of control
- T/C (dose: 3.11 mg/kg/injection, schedule: Q01DX009 (ip), vehicle: Klucel (hydroxypropylcellulose) (HPC)): 126 % of control
- T/C (dose: 4.32 mg/kg/injection, schedule: Q01DX009 (ip), vehicle: Klucel (hydroxypropylcellulose) (HPC)): 135 % of control
- T/C (dose: 4.32 mg/kg/injection, schedule: Q03HX006 (ip), vehicle: Klucel (hydroxypropylcellulose) (HPC)): 133 % of control
- T/C (dose: 5.0 mg/kg/injection, schedule: Q01DX009 (ip), vehicle: distilled water + Tween-80): 128 % of control
- T/C (dose: 5.0 mg/kg/injection, schedule: Q01DX009 (ip), vehicle: sodium bicarbonate): 146 % of control
- T/C (dose: 5.18 mg/kg/injection, schedule: Q01DX009 (ip), vehicle: Klucel (hydroxypropylcellulose) (HPC)): 144 % of control
- T/C (dose: 6.25 mg/kg/injection, schedule: Q01DX009 (ip), vehicle: Klucel (hydroxypropylcellulose) (HPC)): 144 % of control
- T/C (dose: 7.2 mg/kg/injection, schedule: Q03HX006 (ip), vehicle: Klucel (hydroxypropylcellulose) (HPC)): 148 % of control
- T/C (dose: 7.5 mg/kg/injection, schedule: Q01DX005 (ip), vehicle: Klucel (hydroxypropylcellulose) (HPC)): 144 % of control [7 of 8 alive]
- T/C (dose: 7.5 mg/kg/injection, schedule: Q01DX009 (ip), vehicle: water): 136 % of control
- T/C (dose: 8.39 mg/kg/injection, schedule: Q01DX009 (ip), vehicle: water): 148 % of control
- T/C (dose: 10.0 mg/kg/injection, schedule: Q01DX009 (ip), vehicle: distilled water + Tween-80): 136, 137, 138, 142, 145, 146 % of control
- T/C (dose: 13.0 mg/kg/injection, schedule: Q01DX005 (ip), vehicle: Klucel (hydroxypropylcellulose) (HPC)): 146 % of control [8 of 9 alive]
- T/C (dose: 15.0 mg/kg/injection, schedule: Q01DX005 (ip), vehicle: water): 131 % of control [9 of 10 alive]
- T/C (dose: 15.0 mg/kg/injection, schedule: Q01DX005 (iv), vehicle: water): 131 % of control
- T/C (dose: 15.0 mg/kg/injection, schedule: Q01DX009 (oral), vehicle: water): 136 % of control
- T/C (dose: 15.0 mg/kg/injection, schedule: Q03HX008 (ip), vehicle: water): 127 % of control
- T/C (dose: 18.0 mg/kg/injection, schedule: Q01DX009 (ip), vehicle: distilled water + Tween-80, evaluated on day 30): 149, 153, 156, 162 % of control
- T/C (dose: 18.0 mg/kg/injection, schedule: Q01DX009 (ip), vehicle: distilled water + Tween-80, evaluated on day 45): 156 % of control
- T/C (dose: 20.0 mg/kg/injection, schedule: Q01DX009 (ip), vehicle: distilled water + Tween-80): 136, 151, 153, 156, 157, 171 % of control
- T/C (dose: 21.6 mg/kg/injection, schedule: Q04DX002 (ip), vehicle: Klucel (hydroxypropylcellulose) (HPC)): 127 % of control
- T/C (dose: 25.0 mg/kg/injection, schedule: Q01DX009 (oral), vehicle: sodium bicarbonate): 131 % of control
- T/C (dose: 27.0 mg/kg/injection, schedule: Q01DX009 (ip), vehicle: distilled water + Tween-80, evaluated on day 30): 156, 157, 160, 161, 163, 171, 172, 178 % of control
- T/C (dose: 27.0 mg/kg/injection, schedule: Q01DX009 (ip), vehicle: distilled water + Tween-80, evaluated on day 40): 165 % of control
- T/C (dose: 27.0 mg/kg/injection, schedule: Q01DX009 (ip), vehicle: distilled water + Tween-80, evaluated on day 45): 159, 161, 166 % of control
- T/C (dose: 30.0 mg/kg/injection, schedule: Q01DX005 (ip), vehicle: water): 142 % of control
- T/C (dose: 30.0 mg/kg/injection, schedule: Q01DX005 (iv), vehicle: water): 142 % of control
- T/C (dose: 30.0 mg/kg/injection, schedule: Q01DX005 (oral), vehicle: water): 139 % of control
- T/C (dose: 30.0 mg/kg/injection, schedule: Q03HX008 (ip), vehicle: water): 132 % of control
- T/C (dose: 36.0 mg/kg/injection, schedule: Q04DX002 (ip), vehicle: Klucel (hydroxypropylcellulose) (HPC)): 135 % of control
- T/C (dose: 40.0 mg/kg/injection, schedule: Q01DX009 (ip), vehicle: distilled water + Tween-80, evaluated on day 30): 152, 153, 156, 157, 164, 164 [5 of 6 alive], 165, 167, 169, 170, 171 (2×), 178, 181, 183 % of control
- T/C (dose: 40.0 mg/kg/injection, schedule: Q01DX009 (ip), vehicle: distilled water + Tween-80, evaluated on day 40): 165 % of control
- T/C (dose: 40.0 mg/kg/injection, schedule: Q01DX009 (ip), vehicle: distilled water + Tween-80, evaluated on day 45): 157, 161, 167 % of control
- T/C (dose: 40.3 mg/kg/injection, schedule: Q01DX005 (iv), vehicle: water): 145 % of control
- T/C (dose: 50.0 mg/kg/injection, schedule: Q01DX009 (oral), vehicle: sodium bicarbonate): 144 % of control
- T/C (dose: 60.0 mg/kg/injection, schedule: Q01DX005 (ip), vehicle: water): 144 % of control
- survivor count (dose: 60.0 mg/kg/injection, schedule: Q01DX005 (iv), vehicle: clinical formulation): 0 of 8
- survivor count (dose: 60.0 mg/kg/injection, schedule: Q01DX005 (iv), vehicle: water): 4 of 10
- T/C (dose: 60.0 mg/kg/injection, schedule: Q01DX009 (ip), vehicle: distilled water + Tween-80, evaluated on day 30): 157, 162, 164, 165 (2×), 168, 174, 182, 184 % of control
- T/C (dose: 60.0 mg/kg/injection, schedule: Q01DX009 (ip), vehicle: distilled water + Tween-80, evaluated on day 40): 172 % of control
- T/C (dose: 60.0 mg/kg/injection, schedule: Q01DX009 (ip), vehicle: distilled water + Tween-80, evaluated on day 45): 158, 162, 170 % of control
- T/C [1]: 181, 182, 183, 197, 205 % of control
- survivor count [1]: 6 of 6
- survivor count (dose: 80.0 mg/kg/injection, schedule: Q01DX009 (ip), vehicle: sodium bicarbonate): 6 of 6
- survivor count (dose: 80.5 mg/kg/injection, schedule: Q01DX005 (iv), vehicle: water): 4 of 8
- T/C (dose: 90.0 mg/kg/injection, schedule: Q01DX009 (ip), vehicle: distilled water + Tween-80, evaluated on day 30): 94, 148, 171, 175, 180, 184 [9 of 10 alive], 186 [9 of 10 alive], 200, 201 % of control
- T/C (dose: 90.0 mg/kg/injection, schedule: Q01DX009 (ip), vehicle: distilled water + Tween-80, evaluated on day 40): 189 % of control
- T/C (dose: 90.0 mg/kg/injection, schedule: Q01DX009 (ip), vehicle: distilled water + Tween-80, evaluated on day 45): 175, 177, 183 % of control
- survivor count (dose: 100.0 mg/kg/injection, schedule: Q01DX009 (oral), vehicle: sodium bicarbonate): 5 of 5
- survivor count (dose: 110.0 mg/kg/injection, schedule: Q01DX009 (ip), vehicle: distilled water + Tween-80): 3 of 10 and 6 of 6
- survivor count (dose: 115.0 mg/kg/injection, schedule: Q01DX009 (ip), vehicle: distilled water + Tween-80): 7 of 10
- survivor count (dose: 120.0 mg/kg/injection, schedule: Q01DX001 (iv), vehicle: water): 0 of 10
- survivor count (dose: 120.0 mg/kg/injection, schedule: Q01DX005 (ip), vehicle: water): 2 of 10
- survivor count (dose: 120.0 mg/kg/injection, schedule: Q01DX005 (iv), vehicle: water): 0 of 10
- survivor count (dose: 120.0 mg/kg/injection, schedule: Q01DX009 (ip), vehicle: water): 10 of 10
- survivor count (dose: 120.0 mg/kg/injection, schedule: Q01DX009 (oral), vehicle: water): 8 of 10
- survivor count (dose: 120.0 mg/kg/injection, schedule: Q03HX008 (ip), vehicle: water): 0 of 10
- survivor count (dose: 120.0 mg/kg/injection, schedule: Q03HX024 (ip), vehicle: water): 1 of 10
- survivor count (dose: 130.0 mg/kg/injection, schedule: Q01DX009 (ip), vehicle: distilled water + Tween-80): 3 of 10, 6 of 8, 9 of 10, 10 of 10
- survivor count (dose: 160.0 mg/kg/injection, schedule: Q01DX005 (ip), vehicle: Klucel (hydroxypropylcellulose) (HPC)): 6 of 6
- survivor count (dose: 200.0 mg/kg/injection, schedule: Q01DX009 (oral), vehicle: sodium bicarbonate): 5 of 5 and 6 of 6
- survivor count (dose: 240.0 mg/kg/injection, schedule: Q01DX001 (ip), vehicle: water): 0 of 10
- survivor count (dose: 240.0 mg/kg/injection, schedule: Q01DX001 (iv), vehicle: water): 0 of 10
- survivor count (dose: 240.0 mg/kg/injection, schedule: Q01DX005 (oral), vehicle: water): 10 of 10
- survivor count (dose: 240.0 mg/kg/injection, schedule: Q01DX009 (oral), vehicle: water): 9 of 10
- survivor count (dose: 240.0 mg/kg/injection, schedule: Q04DX003 (ip), vehicle: water): 1 of 10
- survivor count (dose: 400.0 mg/kg/injection, schedule: Q01DX009 (oral), vehicle: sodium bicarbonate): 4 of 6 and 6 of 6
- survivor count (dose: 480.0 mg/kg/injection, schedule: Q01DX001 (ip), vehicle: water): 0 of 10
- survivor count (dose: 480.0 mg/kg/injection, schedule: Q01DX001 (iv), vehicle: water): 0 of 10
- survivor count (dose: 480.0 mg/kg/injection, schedule: Q04DX003 (ip), vehicle: water): 0 of 10
